Record: PubChem BioAssay AID1508597 (Cure First, 2020)

Screen: 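Knock-downs altering ovarian cancer cell survival with or without PARP inhibitor rucaparib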 (primary screen)
Cell system: human ovarian carcinoma lines grown from tumours: OCI-P5x (papillary serous) and OCI-C5x (clear cell)
Knock-down reagent: siRNA pool against human genes, 1.25 pmol siRNA per well
Duration: 72 h or 96 h, depending on the cell culture
Challenge: rucaparib 20 µM (about IC30) or vehicle, present until read-out
Rucaparib or vehicle: Rucaparib
Cell line: OCI-P5x (serous)
Measured: 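Luminescent ATP-based viability assay read 72 or 96 h after transfection, depending on culture, given as normalised percent viability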
Direction: viability, normalised: higher = more viable cells remaining
Call rule: 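Active when normalised viability falls below 80 percent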
Calls: active = viability under 80%; inactive = viability 80% or more
This is a random part of the about 2,100 reagents, under one of the conditions tested. 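Calls flag viability under 80% in either arm, not effects specific to rucaparib; the reference for percent is not stated.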 Not stated in the record: the 100% reference.

no.	gene	technical replicate	viability, normalised (%)	Call
1	EPHA8	1	82.2	inactive
2	EPHA8	2	73.7	active
3	EPHA8	3	65.5	active
4	STING1	1	46.4	active
5	STING1	2	46.8	active
6	STING1	3	49.6	active
7	DDX49	1	62.2	active
8	DDX49	2	69.4	active
9	DDX49	3	50.4	active
10	CHKB	1	100	inactive
11	CHKB	2	93.6	inactive
12	CHKB	3	108	inactive

The list goes on (2 carried over from the part before).
no.	gene	technical replicate	viability, normalised (%)	Call
11	CHKB	2	93.6	inactive
12	CHKB	3	108	inactive
13	NAP1L4	1	51.6	active
14	NAP1L4	2	52.1	active
15	NAP1L4	3	53.3	active
16	RNF20	1	71	active
17	RNF20	2	69.6	active
18	RNF20	3	69.7	active
19	KMT2D	1	51.9	active
20	KMT2D	2	63	active
21	KMT2D	3	57.7	active
22	GUCY2D	1	68	active
23	GUCY2D	2	92.7	inactive
24	GUCY2D	3	62.3	active
